Values from PubChem BioAssay AID1159584 (Peter MacCallum Cancer Centre, 2016)

Assay: 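Genes that CDH1-null MCF10A cells selectively depend on to survive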 (primary screen)
Cell system: human MCF10A breast epithelial cells, parental and CDH1-null
Knock-down reagent: siRNA against human genes
Measurement: 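ATP luminescence (CellTiter-Glo) viability per line relative to mean mock wells over all plates, and the ratio of CDH1-null to parental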
Scale: CDH1-null / parental viability ratio: higher = CDH1-null cells survive relatively better than parental
This is a random part of about 18,000 deposited reagents. The numbers tell different reagents against one gene apart. Not all columns of the deposit are shown. No sequences are given here. Not stated in the record: the amount of reagent, the time to read-out.

no.	target	siRNA no.	CDH1-null / parental viability ratio
1	COQ5	1	0.86
2	PIK3CD	1	0.88
3	DZIP1L	1	0.96
4	TTC36	1	0.88
5	APBB2	1	1.45
6	EXOSC3	1	1.01
7	BCL7A	1	1
8	SLC5A7	1	0.76
9	KPNA3	1	0.79
10	SND1	1	1.16
11	VHL	1	1.31
12	DEFB118	1	0.8
13	RBMY1B	1	1.01
14	DENND1B	1	1.03
15	DENND1B	2	1.01
16	CRLF3	1	1.13
17	FGFR2	1	0.87
18	POU5F1	1	0.87
19	P2RY10	1	0.71
20	ARRDC4	1	1.37
21	COL13A1	1	1.2
22	RAPGEFL1	1	1.08
23	TMEM208	1	1.15
24	SCYL2	1	1.11
25	TOPORS	1	0.94
26	FAM120B	1	0.95
27	EIF6	1	0.9
28	METTL22	1	1.02
29	CSDE1	1	0.91
30	RAD9B	1	1.17
31	TLR2	1	1.21
32	ALOX5	1	1.24
33	AIDA	1	1
34	COCH	1	1.07
35	MYO16	1	0.93
36	ABHD4	1	1.24

Not a retest: an excerpt of the list.
no.	target	siRNA no.	CDH1-null / parental viability ratio
12	DEFB118	1	0.8
13	RBMY1B	1	1.01
14	DENND1B	1	1.03
15	DENND1B	2	1.01
16	CRLF3	1	1.13

The listing continues:
no.	target	siRNA no.	CDH1-null / parental viability ratio
37	FOXO1	1	0.98
38	CCPG1	1	1.2
39	H2AC21	1	1.21
40	SCRN3	1	0.98
41	DNMT3L	1	1.21
42	ISLR2	1	1.01
43	ARFGAP2	1	1.06
44	FAM43B	1	1.06
45	KLC1	1	1.24
46	ULBP2	1	1
47	ZNF30	1	1.38
48	RXRG	1	1.08
49	HJURP	1	1.06
50	MIIP	1	1.1
51	TRAPPC12	1	1.08
52	PGAP4	1	0.98
53	IRX4	1	0.86
54	TSKS	1	0.81
55	GDPD2	1	1.12
56	SSPN	1	0.95
57	PRSS48	1	1
58	DOCK8	1	1.22
59	MTG2	1	1.07
60	PKN2	1	1.41
61	PDCD6	1	0.89
62	ETV4	1	1.33
63	COPRS	1	1.1
64	GUCY1B1	1	0.84
65	FITM2	1	1.08
66	PTPRA	1	1.23
67	SEMA3G	1	0.96
68	DIDO1	1	0.94
